Source: PubChem BioAssay AID504764 (Drosophila RNAi Screening Center, 2011)

Assay: 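Knock-downs that raise or lower a Notch target reporter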 (primary screen)
System: Drosophila Kc167 cells
Reagent: long dsRNA against Drosophila genes
Duration: about 5 days (4 days dsRNA, then 24 h after transfection)
Conditions: transfection of constitutively active membrane-tethered Notch lacking the extracellular domain, read 24 h later
Measured: 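Light from a Notch-responsive E(spl)m3 luciferase reporter under active Notch, with control-promoter and no-Notch reporter wells to normalise; raw counts from paired wells a and b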
Scale: induced reporter light, run 1, well a and induced reporter light, run 1, well b: higher = more light from the Notch target reporter with active Notch; control promoter light, run 1, well a and control promoter light, run 1, well b: higher = more light from the viral control promoter (cell number, transfection, viability); uninduced reporter light, run 1, well a: higher = more light from the Notch target reporter without active Notch
Hit rule: 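Wells with low control signal or poorly matching duplicates excluded; duplicates averaged; per source plate, z beyond ±2 for induced/control log2 ratio or beyond ±1.8 for induced/uninduced marks a hit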
Meaning of the calls: active = modifier hit (raised or lowered Notch signal); inactive = not a hit
In all, the deposit lists about 22,000 reagents; this is a random part of those that have a named target and a result. Over the whole deposit, 403 (1.9%) are marked active. 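Unnormalised raw counts per well; ratio z-scores behind the hit calls and whether each hit raises or lowers signal are not deposited.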 Reagents against one gene are numbered here. Names joined by + are all predicted targets of the reagent. Reagent sequences are not shown. Not given: the amount of reagent.

| induced reporter light, run 1, well a | induced reporter light, run 1, well b | control promoter light, run 1, well a | control promoter light, run 1, well b | uninduced reporter light, run 1, well a | Call | target | reagent |
| --- | --- | --- | --- | --- | --- | --- | --- |
| 2.08e5 | 1.48e5 | 2.31e5 | 1.96e5 | 17605 | inactive | trsn (translin) | 1 |
| 2.29e5 | 2.05e5 | 3.71e5 | 3.41e5 | 15440 | active | CG7707 | 1 |
| 1.32e5 | 1.59e5 | 2.38e5 | 2.01e5 | 12620 | inactive | Or92a (Odorant receptor 92a) | 1 |
| 76115 | 82605 | 82820 | 1.02e5 | 5225 | inactive | His3.3B (Histone H3.3B) | 1 |
| 12260 | 11730 | 27655 | 38535 | 3050 | active | His3.3B (Histone H3.3B) | 2 |
| 91105 | 73555 | 90120 | 74445 | 5280 | inactive | fj (four-jointed) | 1 |
| 1.15e5 | 1.06e5 | 92360 | 58210 | 9810 | inactive | kraken | 1 |
| 34135 | 29250 | 25635 | 23075 | 2340 | inactive | CG3216 | 1 |
| 65570 | 73830 | 57515 | 56060 | 5038 | inactive | Skadu | 1 |
| 1.72e5 | 1.60e5 | 1.91e5 | 1.87e5 | 12670 | inactive | Cpr92F (Cuticular protein 92F) | 1 |
| 2.01e5 | 1.97e5 | 1.76e5 | 1.90e5 | 16238 | inactive | CG14841 | 1 |
| 57250 | 69545 | 60735 | 73265 | 4010 | inactive | CG2217 + CG42740 | 1 |
| 89145 | 76910 | 77950 | 52390 | 5635 | inactive | Tpc1 | 1 |
| 1.24e5 | 1.17e5 | 94880 | 73240 | 9060 | inactive | Tpc1 | 2 |
| 1.35e5 | 1.28e5 | 2.20e5 | 1.92e5 | 9980 | inactive | CG16781 | 1 |
| 38270 | 34565 | 49070 | 36890 | 4595 | inactive | CG31674 | 1 |
| 2.15e5 | 2.01e5 | 2.84e5 | 2.49e5 | 15145 | inactive | CG31998 | 1 |
| 1.40e5 | 1.36e5 | 2.15e5 | 2.61e5 | 8738 | inactive | CG31998 | 2 |
| 1.00e5 | 99040 | 95405 | 1.01e5 | 10655 | inactive | Cyp6v1 (Cytochrome P450 6v1) | 1 |
| 1.77e5 | 1.54e5 | 2.39e5 | 2.31e5 | 14555 | inactive | CG32650 | 1 |
| 92370 | 90735 | 1.22e5 | 1.90e5 | 8830 | inactive | Lsp1gamma (Larval serum protein 1 gamma) | 1 |
| 1.58e5 | 1.15e5 | 1.55e5 | 1.11e5 | 8145 | inactive | eg (eagle) | 1 |
| 1.87e5 | 1.31e5 | 1.78e5 | 1.67e5 | 9700 | inactive | Lgr1 (Leucine-rich repeat-containing G protein-coupled receptor 1) | 1 |
| 22825 | 17390 | 23075 | 23355 | 1125 | inactive | RpS14a (Ribosomal protein S14a) | 1 |

Copied from the listing (5 entries):
| induced reporter light, run 1, well a | induced reporter light, run 1, well b | control promoter light, run 1, well a | control promoter light, run 1, well b | uninduced reporter light, run 1, well a | Call | target | reagent |
| --- | --- | --- | --- | --- | --- | --- | --- |
| 91105 | 73555 | 90120 | 74445 | 5280 | inactive | fj (four-jointed) | 1 |
| 1.15e5 | 1.06e5 | 92360 | 58210 | 9810 | inactive | kraken | 1 |
| 34135 | 29250 | 25635 | 23075 | 2340 | inactive | CG3216 | 1 |
| 65570 | 73830 | 57515 | 56060 | 5038 | inactive | Skadu | 1 |
| 1.72e5 | 1.60e5 | 1.91e5 | 1.87e5 | 12670 | inactive | Cpr92F (Cuticular protein 92F) | 1 |

The listing continues.
| induced reporter light, run 1, well a | induced reporter light, run 1, well b | control promoter light, run 1, well a | control promoter light, run 1, well b | uninduced reporter light, run 1, well a | Call | target | reagent |
| --- | --- | --- | --- | --- | --- | --- | --- |
| 98250 | 83675 | 1.01e5 | 78900 | 6582 | inactive | CG4615 | 1 |
| 1.65e5 | 1.44e5 | 1.90e5 | 1.61e5 | 10755 | inactive | CG4615 | 2 |
| 1.77e5 | 1.57e5 | 1.81e5 | 1.77e5 | 10720 | inactive | CG5849 | 1 |
| 58480 | 69855 | 88105 | 87855 | 5610 | inactive | svr (silver) | 1 |
| 1.33e5 | 1.23e5 | 1.65e5 | 1.95e5 | 9005 | inactive | svr (silver) | 2 |
| 1.21e5 | 1.35e5 | 1.59e5 | 1.33e5 | 11660 | inactive | CG13220 | 1 |
| 72770 | 47580 | 55340 | 56335 | 3155 | inactive | spi (spitz) | 1 |
| 2.09e5 | 1.77e5 | 2.58e5 | 2.33e5 | 15030 | inactive | CG9447 | 1 |
| 1.31e5 | 1.25e5 | 2.00e5 | 2.01e5 | 9480 | inactive | CG15208 | 1 |
| 1.07e5 | 1.47e5 | 1.29e5 | 1.30e5 | 18210 | inactive | IntS12 (Integrator 12) | 1 |
| 1.13e5 | 1.21e5 | 2.25e5 | 2.07e5 | 8985 | inactive | Rab9Db + Rab9Fa | 1 |
| 76595 | 72960 | 90595 | 1.07e5 | 7130 | inactive | GLaz (Glial Lazarillo) | 1 |
| 1.51e5 | 1.76e5 | 1.59e5 | 1.42e5 | 11810 | inactive | CG15909 | 1 |
| 1.28e5 | 1.28e5 | 1.03e5 | 46930 | 9710 | inactive | Ntf-2 (Nuclear transport factor-2) | 1 |
| 1.03e5 | 1.09e5 | 1.37e5 | 1.64e5 | 8505 | inactive | mRpL30 (mitochondrial ribosomal protein L30) | 1 |
| 1.92e5 | 1.39e5 | 1.55e5 | 1.38e5 | 13735 | inactive | CG7227 | 1 |
| 1.50e5 | 1.41e5 | 1.31e5 | 1.08e5 | 11025 | inactive | CG8461 | 1 |
| 1.75e5 | 1.78e5 | 2.97e5 | 1.87e5 | 8120 | inactive | CG8757 | 1 |
| 85560 | 1.13e5 | 1.15e5 | 1.01e5 | 9330 | inactive | Dph4 (Diphthamide biosynthesis 4) | 1 |
| 1.91e5 | 1.39e5 | 2.06e5 | 2.18e5 | 14115 | inactive | CG13836 (retired record) | 1 |
| 51075 | 50580 | 60745 | 49625 | 2870 | inactive | CG12279 | 1 |
| 1.55e5 | 1.36e5 | 1.40e5 | 1.21e5 | 8975 | inactive | Trmt112 (tRNA methyltransferase subunit 11-2) | 1 |
| 78340 | 90355 | 73400 | 97100 | 6465 | inactive | CG15597 | 1 |
| 99790 | 1.16e5 | 99285 | 54545 | 7900 | inactive | Hayan | 1 |
| – | – | – | – | – | inactive | Hayan | 2 |
| 1.04e5 | 1.20e5 | 1.17e5 | 1.39e5 | 7940 | inactive | Gycbeta100B (Guanylyl cyclase beta-subunit at 100B) | 1 |
| 88115 | 1.13e5 | 1.45e5 | 1.39e5 | 8660 | inactive | Gycbeta100B (Guanylyl cyclase beta-subunit at 100B) | 2 |
| 2.07e5 | 1.90e5 | 2.58e5 | 2.75e5 | 13075 | inactive | Gycbeta100B (Guanylyl cyclase beta-subunit at 100B) | 3 |
| 1.27e5 | 1.43e5 | 83995 | 1.15e5 | 20920 | inactive | ATPsynGL (ATP synthase, subunit G-like) | 1 |
| 61970 | 61145 | 82360 | 74910 | 6470 | inactive | Arf6 (ADP ribosylation factor 6) | 1 |
| 1.08e5 | 1.56e5 | 59345 | 62645 | 8378 | inactive | roq (roquin) | 1 |
| 2.15e5 | 1.80e5 | 2.79e5 | 2.59e5 | 20915 | inactive | CG32110 | 1 |
| 76150 | 71385 | 89855 | 67965 | 5245 | inactive | CG34028 | 1 |
| 80535 | 81890 | 56295 | 70305 | 5770 | inactive | CycB (Cyclin B) | 1 |
| 1.28e5 | 1.22e5 | 1.06e5 | 1.12e5 | 11520 | inactive | Semp1 (Seminal metalloprotease-1) | 1 |
| 1.22e5 | 1.16e5 | 1.94e5 | 1.84e5 | 10225 | inactive | CG10793 | 1 |
| 1.99e5 | 1.95e5 | 2.36e5 | 2.22e5 | 13520 | inactive | mib2 (mind bomb 2) | 1 |
| 1.00e5 | 1.29e5 | 1.29e5 | 1.68e5 | 8960 | inactive | CG18477 + CG31780 | 1 |
| 5610 | 5105 | 7615 | 5250 | 735 | inactive | Prosalpha3 (Proteasome alpha3 subunit) | 1 |
| 1.49e5 | 1.55e5 | 3.09e5 | 3.17e5 | 10788 | inactive | CG14270 | 1 |
